The values that follow come from paper PMC4890666.

Sequences of proteins named here, by UniProt entry; tags and fusion partners are left off.
UniProt Q04205: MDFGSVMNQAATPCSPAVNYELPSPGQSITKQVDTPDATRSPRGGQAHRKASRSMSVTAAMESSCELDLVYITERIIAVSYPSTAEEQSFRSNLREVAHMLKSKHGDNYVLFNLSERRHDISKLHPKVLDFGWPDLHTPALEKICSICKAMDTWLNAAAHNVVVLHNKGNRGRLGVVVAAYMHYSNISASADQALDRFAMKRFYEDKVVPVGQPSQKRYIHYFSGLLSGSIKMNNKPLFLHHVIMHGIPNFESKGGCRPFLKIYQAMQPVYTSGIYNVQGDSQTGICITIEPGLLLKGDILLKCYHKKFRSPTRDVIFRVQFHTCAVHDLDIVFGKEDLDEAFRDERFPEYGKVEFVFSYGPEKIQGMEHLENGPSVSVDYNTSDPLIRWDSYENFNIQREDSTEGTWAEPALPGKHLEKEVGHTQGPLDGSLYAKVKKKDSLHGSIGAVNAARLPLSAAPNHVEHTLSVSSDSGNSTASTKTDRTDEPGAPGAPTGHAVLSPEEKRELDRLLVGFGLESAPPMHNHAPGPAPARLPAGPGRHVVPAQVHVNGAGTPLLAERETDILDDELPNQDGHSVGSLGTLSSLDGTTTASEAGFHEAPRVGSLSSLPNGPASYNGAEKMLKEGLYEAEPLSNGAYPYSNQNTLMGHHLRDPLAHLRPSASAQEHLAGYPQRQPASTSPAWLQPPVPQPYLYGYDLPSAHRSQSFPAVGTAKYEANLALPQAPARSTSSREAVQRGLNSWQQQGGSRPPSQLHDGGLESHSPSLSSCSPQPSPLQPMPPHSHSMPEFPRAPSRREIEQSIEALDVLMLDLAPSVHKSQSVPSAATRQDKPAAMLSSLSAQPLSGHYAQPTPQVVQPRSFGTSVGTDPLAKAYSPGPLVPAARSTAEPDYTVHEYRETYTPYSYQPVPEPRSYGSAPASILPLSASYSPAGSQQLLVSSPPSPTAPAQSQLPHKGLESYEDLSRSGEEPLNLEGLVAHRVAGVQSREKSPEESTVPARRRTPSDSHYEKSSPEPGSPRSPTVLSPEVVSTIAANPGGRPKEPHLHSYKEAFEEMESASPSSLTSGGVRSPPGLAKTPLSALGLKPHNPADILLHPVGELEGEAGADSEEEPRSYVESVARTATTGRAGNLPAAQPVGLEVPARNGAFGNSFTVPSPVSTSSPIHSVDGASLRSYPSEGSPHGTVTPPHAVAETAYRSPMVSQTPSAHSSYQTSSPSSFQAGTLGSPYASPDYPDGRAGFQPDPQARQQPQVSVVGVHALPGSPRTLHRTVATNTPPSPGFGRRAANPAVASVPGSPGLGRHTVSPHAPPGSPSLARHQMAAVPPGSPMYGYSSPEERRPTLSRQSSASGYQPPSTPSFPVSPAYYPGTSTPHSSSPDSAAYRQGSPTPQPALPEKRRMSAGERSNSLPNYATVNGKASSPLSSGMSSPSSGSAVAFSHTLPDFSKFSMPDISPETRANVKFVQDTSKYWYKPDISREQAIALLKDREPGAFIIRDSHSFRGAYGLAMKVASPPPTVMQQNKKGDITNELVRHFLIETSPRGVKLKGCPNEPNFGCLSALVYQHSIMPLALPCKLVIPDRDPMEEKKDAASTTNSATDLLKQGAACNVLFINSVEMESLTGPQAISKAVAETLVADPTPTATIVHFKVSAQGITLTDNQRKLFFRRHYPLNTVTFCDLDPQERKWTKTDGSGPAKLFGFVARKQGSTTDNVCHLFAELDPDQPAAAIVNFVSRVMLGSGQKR

Assay [1] deals with FLAG-tagged Cas15YF (phosphorylation-defective mutant of Cas) (UniProt Q61140). The experiment in a line: co-IP; anti-FLAG (M2) Affinity Gel on lysates of HEK293T cells co-transfected 24 h with FLAG-Cas variants and Cerulean-tensin 1 variants; anti-GFP blot detects Cerulean.
Assay [2] has as its target T1, FLAG-tagged wild-type Cas (p130Cas, Crk-associated substrate) (UniProt Q61140).
T1 sequence: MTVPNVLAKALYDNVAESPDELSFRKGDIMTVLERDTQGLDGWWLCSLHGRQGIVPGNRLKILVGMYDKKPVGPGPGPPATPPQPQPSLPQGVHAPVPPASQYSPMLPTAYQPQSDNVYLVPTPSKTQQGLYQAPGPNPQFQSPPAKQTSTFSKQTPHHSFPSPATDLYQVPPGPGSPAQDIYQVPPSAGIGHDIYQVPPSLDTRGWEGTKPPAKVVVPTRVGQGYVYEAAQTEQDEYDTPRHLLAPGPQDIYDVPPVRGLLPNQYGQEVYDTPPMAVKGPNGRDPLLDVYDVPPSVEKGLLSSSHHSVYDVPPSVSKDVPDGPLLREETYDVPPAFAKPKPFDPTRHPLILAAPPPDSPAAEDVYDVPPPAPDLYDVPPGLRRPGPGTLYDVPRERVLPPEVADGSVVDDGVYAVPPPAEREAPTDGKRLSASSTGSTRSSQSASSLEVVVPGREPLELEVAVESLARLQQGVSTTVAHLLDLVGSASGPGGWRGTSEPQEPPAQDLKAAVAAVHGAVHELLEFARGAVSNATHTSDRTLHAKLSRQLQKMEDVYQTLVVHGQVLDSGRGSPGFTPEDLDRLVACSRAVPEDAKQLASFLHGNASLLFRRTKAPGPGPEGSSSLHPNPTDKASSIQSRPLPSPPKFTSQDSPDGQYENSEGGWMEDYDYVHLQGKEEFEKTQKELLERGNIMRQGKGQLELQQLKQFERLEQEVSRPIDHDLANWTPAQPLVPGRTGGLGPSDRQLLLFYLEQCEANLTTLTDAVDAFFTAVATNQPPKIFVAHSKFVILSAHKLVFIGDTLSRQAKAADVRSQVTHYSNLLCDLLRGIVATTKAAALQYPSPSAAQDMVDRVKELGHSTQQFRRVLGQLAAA
The assay is described as above.

No constants are given. Whether binding was seen depends on the method and setting. Binding seen in cells or lysates may run through a third protein. Binding calls can cover weak binding; strength is not graded here. For some assays here: Where a sequence is shown, tags or fusion partners need not be part of it.

As to “Cerulean-tagged tensin 1 (full-length) (from UniProt Q04205 1-1744)”, the binding result in assay [1] is “binds weakly”.

Take “Cerulean-tensin 1-ΔSH2PTB (chicken) (domain or fragment)”: in assay [2], the binding entry is listed as “binds weakly”.
